According to the supplement of paper PMC10077471:
Over roughly 1,900 compounds, “excess over highest single agent (ExcessHSA) synergy score, 6x6 matrix” has its median near -83; the lowest 2% begin near -370. The list shows a part of the results.

System: NCI-H446
Test: excess over highest single agent (ExcessHSA) synergy score, 6x6 matrix; higher = less synergy (more negative = stronger synergy)
Conditions: 72 h; CellTiter-Glo viability

Compound	excess over highest single agent
O=C(CCCCCCC(=O)Nc1ccc([C@H]2O[C@@H](CSc3nc(-c4ccccc4)c(-c4ccccc4)o3)C[C@@H](c3ccc(CO)cc3)O2)cc1)NO + Cc1sc2c(c1C)C(c1ccc(Cl)cc1)=N[C@@H](CC(=O)OC(C)(C)C)c1nnc(C)n1-2 [NCGC00250412-19]	-155
CN(Cc1cnc2nc(N)nc(N)c2n1)c1ccc(C(=O)N[C@@H](CCC(=O)O)C(=O)O)cc1 + Cc1sc2c(c1C)C(c1ccc(Cl)cc1)=N[C@@H](CC(=O)OC(C)(C)C)c1nnc(C)n1-2 [NCGC00250412-19]	-237
C[C@]1(CO)CN(c2cc(C(=O)Nc3ccc4c(c3)-c3c(c(C(N)=O)nn3-c3ccc(F)cc3)CC4)c(Cl)cn2)C[C@@]1(C)CO + Cc1sc2c(c1C)C(c1ccc(Cl)cc1)=N[C@@H](CC(=O)OC(C)(C)C)c1nnc(C)n1-2 [NCGC00250412-19]	-78.9
Cc1n[nH]c(C)c1Cc1sc2c(c1C(=O)N1C[C@H](O)CO1)c(=O)n(C)c(=O)n2CC(C)C + Cc1sc2c(c1C)C(c1ccc(Cl)cc1)=N[C@@H](CC(=O)OC(C)(C)C)c1nnc(C)n1-2 [NCGC00250412-19]	-210
CNCC(O)c1ccc(O)cc1 (configuration not stated) + Cc1sc2c(c1C)C(c1ccc(Cl)cc1)=N[C@@H](CC(=O)OC(C)(C)C)c1nnc(C)n1-2 [NCGC00250412-19]	-66.2
C=CCNc1c(O)cc2c(O)c1C[C@@H](C)C[C@H](OC)[C@H](O)[C@@H](C)/C=C(\C)[C@H](OC(N)=O)[C@@H](OC)/C=C\C=C(/C)C(=O)N2 + Cc1sc2c(c1C)C(c1ccc(Cl)cc1)=N[C@@H](CC(=O)OC(C)(C)C)c1nnc(C)n1-2 [NCGC00250412-19]	-198
Cc1cc(-c2ncc(CC(=O)Nc3ccc(-c4cnccn4)cn3)cc2C)ccn1 + Cc1sc2c(c1C)C(c1ccc(Cl)cc1)=N[C@@H](CC(=O)OC(C)(C)C)c1nnc(C)n1-2 [NCGC00250412-19]	192
Cc1cnc(C(=O)NCCc2ccc(S(=O)(=O)NC(=O)NC3CCCCC3)cc2)cn1 + Cc1sc2c(c1C)C(c1ccc(Cl)cc1)=N[C@@H](CC(=O)OC(C)(C)C)c1nnc(C)n1-2 [NCGC00250412-19]	-41.1
CC[C@@H]1[C@@H](C)O[C@@](O)([C@@H](C)[C@H](O)[C@H](C)[C@H]2OC(=O)/C=C/C=C/[C@H](C)[C@@H]([C@@H](C)[C@@H](O)[C@H](C)[C@@]3(O)C[C@@H](O[C@H]4C[C@H](O)[C@H](O)[C@H](C)O4)[C@H](CC)[C@@H](C)O3)OC(=O)/C=C/C=C/[C@@H]2C)C[C@H]1O[C@H]1C[C@H](O)[C@H](O)[C@H](C)O1 + Cc1sc2c(c1C)C(c1ccc(Cl)cc1)=N[C@@H](CC(=O)OC(C)(C)C)c1nnc(C)n1-2 [NCGC00250412-19]	-180
CN(C)c1nc(Cc2ccc(NC(=O)c3ccc4ccccc4c3)cc2)nc(Cl)c1CC(=O)O + Cc1sc2c(c1C)C(c1ccc(Cl)cc1)=N[C@@H](CC(=O)OC(C)(C)C)c1nnc(C)n1-2 [NCGC00250412-19]	-81.3
O=C1[C@H](CC[C@H](O)c2ccc(F)cc2)[C@@H](c2ccc(O)cc2)N1c1ccc(F)cc1 + Cc1sc2c(c1C)C(c1ccc(Cl)cc1)=N[C@@H](CC(=O)OC(C)(C)C)c1nnc(C)n1-2 [NCGC00250412-19]	-29.7
c1cc(-c2cnn3cc(-c4ccc(OCCN5CCCCC5)cc4)cnc23)ccn1 + Cc1sc2c(c1C)C(c1ccc(Cl)cc1)=N[C@@H](CC(=O)OC(C)(C)C)c1nnc(C)n1-2 [NCGC00250412-19]	148
COc1ncc(-c2ccc3nccc(-c4ccnnc4)c3c2)cc1NS(=O)(=O)c1ccc(F)cc1F + Cc1sc2c(c1C)C(c1ccc(Cl)cc1)=N[C@@H](CC(=O)OC(C)(C)C)c1nnc(C)n1-2 [NCGC00250412-19]	-259
CCc1cc(-c2n[nH]c(C)c2-c2ccc3c(c2)OCCO3)c(O)cc1O + Cc1sc2c(c1C)C(c1ccc(Cl)cc1)=N[C@@H](CC(=O)OC(C)(C)C)c1nnc(C)n1-2 [NCGC00250412-19]	-215
CN1CCC(=C2c3ccccc3CCc3sccc32)CC1 + Cc1sc2c(c1C)C(c1ccc(Cl)cc1)=N[C@@H](CC(=O)OC(C)(C)C)c1nnc(C)n1-2 [NCGC00250412-19]	-177
CCN(CC)CCOc1ccc(C(=C(Cl)c2ccccc2)c2ccccc2)cc1 + Cc1sc2c(c1C)C(c1ccc(Cl)cc1)=N[C@@H](CC(=O)OC(C)(C)C)c1nnc(C)n1-2 [NCGC00250412-19]	-103
COc1ccc2cc(-c3nc(-c4ccc([S+](C)[O-])cc4)[nH]c3-c3ccncc3)ccc2c1 (configuration not stated) + Cc1sc2c(c1C)C(c1ccc(Cl)cc1)=N[C@@H](CC(=O)OC(C)(C)C)c1nnc(C)n1-2 [NCGC00250412-19]	-100
CCCCCOC(=O)Nc1nc(=O)n([C@@H]2O[C@H](C)[C@@H](O)[C@H]2O)cc1F + Cc1sc2c(c1C)C(c1ccc(Cl)cc1)=N[C@@H](CC(=O)OC(C)(C)C)c1nnc(C)n1-2 [NCGC00250412-19]	3.95
CC(C)=CCC/C(C)=C/CC/C(C)=C/CSc1ccccc1C(=O)O + Cc1sc2c(c1C)C(c1ccc(Cl)cc1)=N[C@@H](CC(=O)OC(C)(C)C)c1nnc(C)n1-2 [NCGC00250412-19]	93.2

Compound	excess over highest single agent
Cc1cnc(Nc2ccc(F)cc2Cl)nc1-c1c[nH]c(C(=O)N[C@H](CO)c2cccc(Cl)c2)c1 + Cc1sc2c(c1C)C(c1ccc(Cl)cc1)=N[C@@H](CC(=O)OC(C)(C)C)c1nnc(C)n1-2 [NCGC00250412-19]	35.4
Cc1cccc2c1CC[C@H](CN1CCC(c3c(Cl)cccc3Cl)CC1)C[C@@H]2O + Cc1sc2c(c1C)C(c1ccc(Cl)cc1)=N[C@@H](CC(=O)OC(C)(C)C)c1nnc(C)n1-2 [NCGC00250412-19]	-49.6
O=C1CCc2ccc(OCCCCN3CCN(c4cccc(Cl)c4Cl)CC3)cc2N1 + Cc1sc2c(c1C)C(c1ccc(Cl)cc1)=N[C@@H](CC(=O)OC(C)(C)C)c1nnc(C)n1-2 [NCGC00250412-19]	-98.6
Cc1ccc(S(=O)(=O)Nc2cc(Cl)ccc2C(=O)Nc2nc(-c3ccccc3)cs2)cc1 + Cc1sc2c(c1C)C(c1ccc(Cl)cc1)=N[C@@H](CC(=O)OC(C)(C)C)c1nnc(C)n1-2 [NCGC00250412-19]	214
CCCCCCCCCCCC1=C(O)C(=O)C=C(O)C1=O + Cc1sc2c(c1C)C(c1ccc(Cl)cc1)=N[C@@H](CC(=O)OC(C)(C)C)c1nnc(C)n1-2 [NCGC00250412-19]	-98.3
NCCCC(N)(C(=O)O)C(F)F (configuration not stated) + Cc1sc2c(c1C)C(c1ccc(Cl)cc1)=N[C@@H](CC(=O)OC(C)(C)C)c1nnc(C)n1-2 [NCGC00250412-19]	-46.7
c1ccc(CCCN2CCN(CCOC(c3ccccc3)c3ccccc3)CC2)cc1 + Cc1sc2c(c1C)C(c1ccc(Cl)cc1)=N[C@@H](CC(=O)OC(C)(C)C)c1nnc(C)n1-2 [NCGC00250412-19]	-22.1
Cc1ccccc1C(OCCN(C)C)c1ccccc1 (configuration not stated) + Cc1sc2c(c1C)C(c1ccc(Cl)cc1)=N[C@@H](CC(=O)OC(C)(C)C)c1nnc(C)n1-2 [NCGC00250412-19]	-47.4
CN1[C@@H]2CC[C@H]1C[C@@H](OC(=O)C(CO)c1ccccc1)C2 (some centres not stated) + Cc1sc2c(c1C)C(c1ccc(Cl)cc1)=N[C@@H](CC(=O)OC(C)(C)C)c1nnc(C)n1-2 [NCGC00250412-19]	-105
Cc1cncc2cccc(S(=O)(=O)N3CCCN(C(=O)CN)C[C@@H]3C)c12 + Cc1sc2c(c1C)C(c1ccc(Cl)cc1)=N[C@@H](CC(=O)OC(C)(C)C)c1nnc(C)n1-2 [NCGC00250412-19]	-137
Cc1cc(Nc2cc(N3CCN(C)CC3)nc(/C=C/c3ccccc3)n2)n[nH]1 + Cc1sc2c(c1C)C(c1ccc(Cl)cc1)=N[C@@H](CC(=O)OC(C)(C)C)c1nnc(C)n1-2 [NCGC00250412-19]	-138
COCCOc1ccc2c(c1)ncn2-c1ccc2cccc(N3CCC(N)CC3)c2n1 + Cc1sc2c(c1C)C(c1ccc(Cl)cc1)=N[C@@H](CC(=O)OC(C)(C)C)c1nnc(C)n1-2 [NCGC00250412-19]	94.4
Cc1cc(-c2ccc(CC(=O)Nc3ccc(-c4cccnc4)cc3)cc2)ccn1 + Cc1sc2c(c1C)C(c1ccc(Cl)cc1)=N[C@@H](CC(=O)OC(C)(C)C)c1nnc(C)n1-2 [NCGC00250412-19]	106
COc1ccc(C2CC(c3ccccc3)=NN2c2ccc(S(N)(=O)=O)cc2)cc1 (configuration not stated) + Cc1sc2c(c1C)C(c1ccc(Cl)cc1)=N[C@@H](CC(=O)OC(C)(C)C)c1nnc(C)n1-2 [NCGC00250412-19]	33.3
C[C@]12CCC(=O)C=C1CC[C@@H]1[C@@H]2CC[C@@]2(C)[C@H]1CC[C@]2(C)O + Cc1sc2c(c1C)C(c1ccc(Cl)cc1)=N[C@@H](CC(=O)OC(C)(C)C)c1nnc(C)n1-2 [NCGC00250412-19]	-111
Oc1cc(O)c(Cl)cn1 + Cc1sc2c(c1C)C(c1ccc(Cl)cc1)=N[C@@H](CC(=O)OC(C)(C)C)c1nnc(C)n1-2 [NCGC00250412-19]	-59.4
O=c1[nH]nc(OCCCc2ccc(Cl)cc2)c(NCc2cccnc2)c1Br + Cc1sc2c(c1C)C(c1ccc(Cl)cc1)=N[C@@H](CC(=O)OC(C)(C)C)c1nnc(C)n1-2 [NCGC00250412-19]	-40.7
CC1(C)CNc2cc(NC(=O)c3cccnc3NCc3ccncc3)ccc21 + Cc1sc2c(c1C)C(c1ccc(Cl)cc1)=N[C@@H](CC(=O)OC(C)(C)C)c1nnc(C)n1-2 [NCGC00250412-19]	-165

Two entries from above, with bars between the fields:
Compound | excess over highest single agent
Cc1cnc(Nc2ccc(F)cc2Cl)nc1-c1c[nH]c(C(=O)N[C@H](CO)c2cccc(Cl)c2)c1 + Cc1sc2c(c1C)C(c1ccc(Cl)cc1)=N[C@@H](CC(=O)OC(C)(C)C)c1nnc(C)n1-2 [NCGC00250412-19] | 35.4
Cc1ccc(S(=O)(=O)Nc2cc(Cl)ccc2C(=O)Nc2nc(-c3ccccc3)cs2)cc1 + Cc1sc2c(c1C)C(c1ccc(Cl)cc1)=N[C@@H](CC(=O)OC(C)(C)C)c1nnc(C)n1-2 [NCGC00250412-19] | 214
